Experimental data from patent US8476434B2, “Protein kinase modulators and method of use” (Amgen Inc., priority 2004, dated 2013).
Some entries share one result that the patent states for a list of compounds.

By UniProt entry, the sequences of proteins in these tests, tags left out. Residues count along the entry.
UniProt Q02763, 23-1124: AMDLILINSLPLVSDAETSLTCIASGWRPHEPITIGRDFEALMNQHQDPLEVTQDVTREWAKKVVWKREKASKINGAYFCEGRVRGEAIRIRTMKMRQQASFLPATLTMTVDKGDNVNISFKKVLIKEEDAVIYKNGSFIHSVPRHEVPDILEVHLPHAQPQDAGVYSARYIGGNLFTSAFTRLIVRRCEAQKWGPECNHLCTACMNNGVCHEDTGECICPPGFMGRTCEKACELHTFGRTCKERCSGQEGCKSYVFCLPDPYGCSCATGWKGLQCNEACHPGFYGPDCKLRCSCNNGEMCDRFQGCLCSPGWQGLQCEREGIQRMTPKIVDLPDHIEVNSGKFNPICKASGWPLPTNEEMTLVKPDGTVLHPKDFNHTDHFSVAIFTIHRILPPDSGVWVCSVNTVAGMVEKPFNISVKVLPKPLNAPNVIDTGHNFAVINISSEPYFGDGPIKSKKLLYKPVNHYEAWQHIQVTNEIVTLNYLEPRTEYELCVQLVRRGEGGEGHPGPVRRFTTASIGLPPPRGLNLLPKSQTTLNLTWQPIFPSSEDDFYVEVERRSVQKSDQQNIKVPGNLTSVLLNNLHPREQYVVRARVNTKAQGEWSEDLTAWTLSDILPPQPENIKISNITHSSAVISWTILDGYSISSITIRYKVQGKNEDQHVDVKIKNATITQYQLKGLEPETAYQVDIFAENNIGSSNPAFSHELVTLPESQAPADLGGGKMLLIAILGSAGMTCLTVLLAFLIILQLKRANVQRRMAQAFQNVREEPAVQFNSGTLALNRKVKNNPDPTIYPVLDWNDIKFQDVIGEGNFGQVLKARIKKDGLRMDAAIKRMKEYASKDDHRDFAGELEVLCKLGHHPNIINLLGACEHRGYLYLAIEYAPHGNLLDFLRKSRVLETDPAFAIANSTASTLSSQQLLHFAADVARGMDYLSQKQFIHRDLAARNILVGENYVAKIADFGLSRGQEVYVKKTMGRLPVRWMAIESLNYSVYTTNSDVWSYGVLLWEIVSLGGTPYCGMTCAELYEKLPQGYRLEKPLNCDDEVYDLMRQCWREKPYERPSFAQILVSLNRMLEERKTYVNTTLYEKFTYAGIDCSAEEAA

biological target: Tie-2 kinase enzyme (Homo sapiens, UniProt Q02763); assay: Tie-2 Homogenous Time Resolved Fluorescent (HTRF) kinase assay; format: biochemical; conditions: read-out: IC50's for the inhibition of Tie-2 as measured by the HTRF assay

Structure (SMILES) | IC50
CCCCCCOc1cccc(NC(=O)c2ccc(C)c(Oc3ncccc3-c3ccnc(NC)c3)c2)c1 [Example 440, N-(3-(hexyloxy)phenyl)-4-methyl-3-((2′-(methylamino)-3,4′-bipyridin-2-yl)oxy)benzamide] | < 5 µM
CNc1cc(-c2cccnc2Oc2cc(C(=O)Nc3cccc(-n4c(C)ccc4C)c3)ccc2C)ccn1 [Example 441, N-(3-(2,5-dimethyl-1H-pyrrol-1-yl)phenyl)-4-methyl-3-((2′-(methylamino)-3,4′-bipyridin-2-yl)oxy)benzamide] | < 5 µM
CNc1cc(-c2cccnc2Oc2cc(C(=O)Nc3cc(C(C)(C)C)on3)ccc2C)ccn1 [Example 442, N-(5-(1,1-dimethylethyl)-3-isoxazolyl)-4-methyl-3-((2′-(methylamino)-3,4′-bipyridin-2-yl)oxy)benzamide] | < 5 µM
CNc1cc(-c2cccnc2Oc2cc(C(=O)Nc3cc(-c4ccccc4)nn3-c3ccccc3)ccc2C)ccn1 [Example 443, N-(1,3-diphenyl-1H-pyrazol-5-yl)-4-methyl-3-((2′-(methylamino)-3,4′-bipyridin-2-yl)oxy)benzamide] | < 5 µM
CNc1cc(-c2cccnc2Oc2cc(C(=O)n3ccc4ccc(C(F)(F)F)cc43)ccc2C)ccn1 [Example 444, N-methyl-2-((2-methyl-5-((6-(trifluoromethyl)-1H-indol-1-yl)carbonyl)phenyl)oxy)-3,4′-bipyridin-2′-amine] | < 5 µM
CNc1cc(-c2cccnc2Oc2cc(C(=O)NCC3CCCCC3)ccc2C)ccn1 [Example 445, N-(cyclohexylmethyl)-4-methyl-3-((2′-(methylamino)-3,4′-bipyridin-2-yl)oxy)benzamide] | < 5 µM
CNc1cc(-c2cccnc2Oc2cc(C(=O)N[C@H](C)C3CCCCC3)ccc2C)ccn1 [Example 446, N-((1R)-1-cyclohexylethyl)-4-methyl-3-((2′-(methylamino)-3,4′-bipyridin-2-yl)oxy)benzamide] | < 5 µM
CNc1cc(-c2cccnc2Oc2cc(C(=O)NCc3cccc(C(F)(F)F)c3)ccc2C)ccn1 [Example 448, 4-methyl-3-((2′-(methylamino)-3,4′-bipyridin-2-yl)oxy)-N-((3-(trifluoromethyl)phenyl)methyl)benzamide] | < 5 µM
CNc1cc(-c2cccnc2Oc2cc(C(=O)NCCC(C)(C)C)ccc2C)ccn1 [Example 449, N-(3,3-dimethylbutyl)-4-methyl-3-((2′-(methylamino)-3,4′-bipyridin-2-yl)oxy)benzamide] | < 5 µM
CNc1cc(-c2cccnc2Oc2cc(C(=O)Nc3cc(C(F)(F)F)ccc3F)ccc2C)ccn1 [Example 450, N-(2-fluoro-5-(trifluoromethyl)phenyl)-4-methyl-3-((2′-(methylamino)-3,4′-bipyridin-2-yl)oxy)benzamide] | < 5 µM
CNc1cc(-c2cccnc2Oc2cc(C(=O)NCC(F)(F)C(F)(F)C(F)(F)F)ccc2C)ccn1 [Example 451, N-(2,2,3,3,4,4,4-heptafluorobutyl)-4-methyl-3-((2′-(methylamino)-3,4′-bipyridin-2-yl)oxy)benzamide] | < 5 µM
CNc1cc(-c2cccnc2Oc2cc(C(=O)Nc3cc(Cl)cc(Cl)c3)ccc2C)ccn1 [Example 452, N-(3,5-dichlorophenyl)-4-methyl-3-((2′-(methylamino)-3,4′-bipyridin-2-yl)oxy)benzamide] | < 5 µM
CNc1cc(-c2cccnc2Oc2cc(C(=O)Nc3cccc(Cl)c3Cl)ccc2C)ccn1 [Example 453, N-(2,3-dichlorophenyl)-4-methyl-3-((2′-(methylamino)-3,4′-bipyridin-2-yl)oxy)benzamide] | < 5 µM
CNc1ncnc(-c2cccnc2Oc2ccc(F)c(C(=O)Nc3cccc(OC(C)C)c3)c2)n1 [Example 454, 2-fluoro-5-((3-(4-(methylamino)-1,3,5-triazin-2-yl)-2-pyridinyl)oxy)-N-(3-((1-methylethyl)oxy)phenyl) benzamide] | < 5 µM
CNc1nccc(-c2cccnc2Oc2ccc(F)c(C(=O)Nc3cc(C(F)(F)F)ccc3N3CCN(C)CC3)c2)n1 [Example 456, 2-fluoro-5-((3-(2-(methylamino)-4-pyrimidinyl)-2-pyridinyl)oxy)-N-(2-(4-methyl-1-piperazinyl)-5-(trifluoromethyl)phenyl) benzamide] | < 5 µM
CNc1nccc(-c2cccnc2Oc2ccc(F)c(C(=O)Nc3cccc(OC(F)(F)F)c3)c2)n1 [Example 457] | < 5 µM

Structure (SMILES) | IC50
CNc1nccc(-c2cccnc2Oc2ccc(F)c(C(=O)Nc3cccc(OC(C)C)c3)c2)n1 [Example 458, 2-fluoro-5-((3-(2-(methylamino)-4-pyrimidinyl)-2-pyridinyl)oxy)-N-(3-((1-methylethyl)oxy)phenyl) benzamide] | < 5 µM
CNc1nccc(-c2cccnc2Oc2ccc(F)c(C(=O)Nc3cc(C(F)(F)F)ccc3N3CC[C@@H](N(C)C)C3)c2)n1 [Example 459, N-(2-((3R)-3-(dimethylamino)-1-pyrrolidinyl)-5-(trifluoromethyl)phenyl)-2-fluoro-5-((3-(2-(methylamino)-4-pyrimidinyl)-2-pyridinyl)oxy)benzamide] | < 5 µM
CNc1nccc(-c2cccnc2Oc2ccc(F)c(C(=O)Nc3cc(C(F)(F)F)ccc3N(C)CCN(C)C)c2)n1 [Example 460, N-(2-((2-(dimethylamino)ethyl)y(methyl)amino)-5-(trifluoromethyl)phenyl)-2-fluoro-5-((3-(2-(methylamino)-4-pyrimidinyl)-2-pyridinyl)oxy)benzamide] | < 5 µM
CNc1nccc(-c2cccnc2Oc2ccc(F)c(C(=O)Nc3cc(C(F)(F)F)ccc3N3CC[C@H](N(C)C)C3)c2)n1 [Example 461, N-(2-((3S)-3-(dimethylamino)-1-pyrrolidinyl)-5-(trifluoromethyl)phenyl)-2-fluoro-5-((3-(2-(methylamino)-4-pyrimidinyl)-2-pyridinyl)oxy)benzamide] | < 5 µM
CNc1ncnc(-c2cccnc2Oc2ccc(F)c(C(=O)Nc3cc(OC[C@@H]4CCCN4C)cc(C(F)(F)F)c3)c2)n1 [Example 462, 2-fluoro-5-((3-(4-(methylamino)-1,3,5-triazin-2-yl)-2-pyridinyl)oxy)-N-(3-((((2S)-1-methyl-2-pyrrolidinyl)methyl)oxy)-5-(trifluoromethyl)phenyl) benzamide] | < 5 µM
CNc1cc(-c2cccnc2Oc2ccc(F)c(C(=O)Nc3cccc(OC(C)C)c3)c2)ccn1 [Example 463, 2-fluoro-5-((2′-(methylamino)-3,4′-bipyridin-2-yl)oxy)-N-(3-((1-methylethyl)oxy)phenyl) benzamide] | < 5 µM
CNc1cc(-c2cccnc2Oc2ccc(F)c(C(=O)Nc3cc(C(F)(F)F)ccc3N(C)CCN(C)C)c2)ccn1 [Example 464, N-(2-((2-(dimethylamino)ethyl) (methyl)amino)-5-(trifluoromethyl)phenyl)-2-fluoro-5-((2′-(methylamino)-3,4′-bipyridin-2-yl)oxy)benzamide] | < 5 µM
CNc1ncnc(-c2cccnc2Oc2ccc(F)c(C(=O)Nc3cc(C(F)(F)F)ccc3N3CC[C@@H](N(C)C)C3)c2)n1 [Example 465, N-(2-((3R)-3-(dimethylamino)-1-pyrrolidinyl)-5-(trifluoromethyl)phenyl)-2-fluoro-5-((3-(4-(methylamino)-1,3,5-triazin-2-yl)-2-pyridinyl)oxy)benzamide] | < 5 µM
CNc1ncnc(-c2cccnc2Oc2ccc(F)c(C(=O)Nc3cc(C(F)(F)F)ccc3N3CC[C@H](N(C)C)C3)c2)n1 [Example 466, N-(2-((3S)-3-(dimethylamino)-1-pyrrolidinyl)-5-(trifluoromethyl)phenyl)-2-fluoro-5-((3-(4-(methylamino)-1,3,5-triazin-2-yl)-2-pyridinyl)oxy)benzamide] | < 5 µM
CNc1nccc(-c2cccnc2Oc2cc(C(=O)Nc3cc(C(F)(F)F)ccc3N3CC[C@@H](N(C)C)C3)ccc2C)n1 [Example 467, N-(2-((3R)-3-(dimethylamino)-1-pyrrolidinyl)-5-(trifluoromethyl)phenyl)-4-methyl-3-((3-(2-(methylamino)-4-pyrimidinyl)-2-pyridinyl)oxy)benzamide] | < 5 µM
CNc1nccc(-c2cccnc2Oc2cc(C(=O)Nc3cc(C(F)(F)F)ccc3N3CC[C@H](N(C)C)C3)ccc2C)n1 [Example 468, N-(2-((3S)-3-(dimethylamino)-1-pyrrolidinyl)-5-(trifluoromethyl)phenyl)-4-methyl-3-((3-(2-(methylamino)-4-pyrimidinyl)-2-pyridinyl)oxy)benzamide] | < 5 µM
CCOc1cccc(NC(=O)c2cc(Oc3ncccc3-c3ncnc(NC)n3)ccc2F)c1 [Example 469, N-(3-(ethyloxy)phenyl)-2-fluoro-5-((3-(4-(methylamino)-1,3,5-triazin-2-yl)-2-pyridinyl)oxy)benzamide] | < 5 µM
CNc1ncnc(-c2cccnc2Oc2ccc(F)c(C(=O)Nc3cccc(Oc4ccccc4)c3)c2)n1 [Example 470, 2-fluoro-5-((3-(4-(methylamino)-1,3,5-triazin-2-yl)-2-pyridinyl)oxy)-N-(3-(phenyloxy)phenyl) benzamide] | < 5 µM
CNc1cc(-c2cccnc2Oc2ccc(F)c(C(=O)Nc3cc(C(F)(F)F)ccc3CN3CCN(C)CC3)c2)ccn1 [Example 471, 2-fluoro-5-((2′-(methylamino)-3,4′-bipyridin-2-yl)oxy)-N-(2-((4-methyl-1-piperazinyl)methyl)-5-(trifluoromethyl)phenyl) benzamide] | < 5 µM
CNc1nccc(-c2cccnc2Oc2ccc(F)c(C(=O)Nc3cc(C(F)(F)F)ccc3CN3CC[C@@H](N(C)C)C3)c2)n1 [Example 472, N-(2-(((3R)-3-(dimethylamino)-1-pyrrolidinyl)methyl)-5-(trifluoromethyl)phenyl)-2-fluoro-5-((3-(2-(methylamino)-4-pyrimidinyl)-2-pyridinyl)oxy)benzamide] | < 5 µM
CNc1ncnc(-c2cccnc2Oc2ccc(F)c(C(=O)Nc3cc(C(F)(F)F)ccc3CN3CC[C@H](N(C)C)C3)c2)n1 [Example 474, N-(2-(((3S)-3-(dimethylamino)-1-pyrrolidinyl)methyl)-5-(trifluoromethyl)phenyl)-2-fluoro-5-((3-(4-(methylamino)-1,3,5-triazin-2-yl)-2-pyridinyl)oxy)benzamide] | < 5 µM
